Measurements from paper PMC8406200, “SAMase of Bacteriophage T3 Inactivates Escherichia coli’s Methionine S-Adenosyltransferase by Forming Heteropolymers” (mBio, 2021).
No constants are given. Whether binding was seen depends on the method and setting. Binding seen in cells or lysates may run through a third protein. Some results given as binding are weak or reduced against the parent protein; the word gives no strength. Tags and fused reporters may be left off the sequences shown.

Target: T1, S-Adenosylmethionine lyase (SAMase) of bacteriophage T3, C-terminal His-tagged (bacteriophage T3) (UniProt P07693)
T1 sequence: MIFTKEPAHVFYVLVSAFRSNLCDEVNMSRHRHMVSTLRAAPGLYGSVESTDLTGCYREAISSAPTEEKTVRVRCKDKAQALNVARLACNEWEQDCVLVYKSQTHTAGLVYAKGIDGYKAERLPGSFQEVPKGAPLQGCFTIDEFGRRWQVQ
Assay: pull-down; 4 μM 6×His-tagged SAMase mixed with E. coli cell lysate, 30 min at room temperature, Ni-NTA bead spin columns, 50 mM NaH2PO4 pH 8, 300 mM NaCl; Western blot with anti-E. coli MAT polyclonal antibodies; only the target purified

binding: binds
B1: E. coli methionine S-adenosyltransferase (MAT), recombinant, C-terminal His6 (enzyme, E. coli MG1655, UniProt P0A817 1-384, looked up)
chain: MAKHLFTSESVSEGHPDKIADQISDAVLDAILEQDPKARVACETYVKTGMVLVGGEITTSAWVDIEEITRNTVREIGYVHSDMGFDANSCAVLSAIGKQSPDINQGVDRADPLEQGAGDQGLMFGYATNETDVLMPAPITYAHRLVQRQAEVRKNGTLPWLRPDAKSQVTFQYDDGKIVGIDAVVLSTQHSEEIDQKSLQEAVMEEIIKPILPAEWLTSATKFFINPTGRFVIGGPMGDCGLTGRKIIVDTYGGMARHGGGAFSGKDPSKVDRSAAYAARYVAKNIVAAGLADRCEIQVSYAIGVAEPTSIMVETFGTEKVPSEQLTLLVREFFDLRPYGLIQMLDLLHPIYKETAAYGHFGREHFPWEKTDKAQLLRDAAGLK
notes: Homotetramer (dimer of dimers); also called EcMAT; E. coli MAT; source: E. coli BL21(DE3) (pET24a), purified (Ni-NTA, SEC)
